What all share (assay): affinity purification with mass spectrometry; YFPHA-tagged bait captured on GFP-Trap magnetic beads from extracts of 20 g transgenic plants; IP buffer 50 mM Tris-HCl pH 7.6, 150 mM NaCl, 5 mM MgCl2, 10% glycerol, 0.25% TritonX-100, 1 mM DTT, with Viscolase; LC-MS/MS, label-free quantification
The target in test [1] is T1, SWI3D-YFPHA (Arabidopsis thaliana) (UniProt Q8VY05).
T1 sequence: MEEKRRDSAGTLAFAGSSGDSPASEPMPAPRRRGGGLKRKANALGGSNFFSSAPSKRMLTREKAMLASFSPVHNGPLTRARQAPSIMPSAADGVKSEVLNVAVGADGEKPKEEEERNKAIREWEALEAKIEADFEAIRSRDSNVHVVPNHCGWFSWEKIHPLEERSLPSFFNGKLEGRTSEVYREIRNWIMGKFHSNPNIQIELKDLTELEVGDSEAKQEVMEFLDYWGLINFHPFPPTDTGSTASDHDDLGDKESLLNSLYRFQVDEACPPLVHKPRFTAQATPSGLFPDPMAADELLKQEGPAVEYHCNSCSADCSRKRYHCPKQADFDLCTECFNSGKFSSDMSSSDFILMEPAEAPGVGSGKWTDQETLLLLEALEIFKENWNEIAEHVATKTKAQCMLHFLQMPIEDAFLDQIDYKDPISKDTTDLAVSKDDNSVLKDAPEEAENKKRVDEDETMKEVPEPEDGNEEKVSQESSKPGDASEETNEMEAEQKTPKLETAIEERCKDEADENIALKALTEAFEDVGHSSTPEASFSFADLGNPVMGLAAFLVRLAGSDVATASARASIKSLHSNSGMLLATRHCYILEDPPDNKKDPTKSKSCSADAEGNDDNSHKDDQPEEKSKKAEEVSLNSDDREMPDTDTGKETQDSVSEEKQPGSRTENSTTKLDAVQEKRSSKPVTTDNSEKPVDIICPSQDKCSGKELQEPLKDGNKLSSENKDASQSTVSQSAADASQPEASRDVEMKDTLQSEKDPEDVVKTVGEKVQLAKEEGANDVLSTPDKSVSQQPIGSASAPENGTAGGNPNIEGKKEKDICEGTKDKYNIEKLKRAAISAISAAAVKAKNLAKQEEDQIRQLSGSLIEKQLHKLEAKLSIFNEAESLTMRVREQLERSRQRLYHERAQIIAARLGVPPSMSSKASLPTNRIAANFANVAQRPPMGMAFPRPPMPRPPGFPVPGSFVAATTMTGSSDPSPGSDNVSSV

Protein sequences, listed by entry. Tags and fused reporters are not part of them. Lines headed by an entry give the natural chain unless they say otherwise; changes in a name come on top.
UniProt F4JBZ1: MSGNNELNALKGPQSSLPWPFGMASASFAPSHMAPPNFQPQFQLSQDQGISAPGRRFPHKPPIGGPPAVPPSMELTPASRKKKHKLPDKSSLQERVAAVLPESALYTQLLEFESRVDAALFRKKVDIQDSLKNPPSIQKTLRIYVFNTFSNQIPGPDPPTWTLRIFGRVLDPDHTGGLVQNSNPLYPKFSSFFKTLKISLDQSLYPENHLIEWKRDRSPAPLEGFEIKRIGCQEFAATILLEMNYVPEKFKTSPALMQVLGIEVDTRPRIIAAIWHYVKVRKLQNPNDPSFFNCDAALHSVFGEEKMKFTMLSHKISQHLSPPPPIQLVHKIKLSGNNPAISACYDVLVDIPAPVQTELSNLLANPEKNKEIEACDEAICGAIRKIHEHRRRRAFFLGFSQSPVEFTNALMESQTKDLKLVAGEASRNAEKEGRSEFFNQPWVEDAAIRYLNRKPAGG
UniProt Q9FMT4: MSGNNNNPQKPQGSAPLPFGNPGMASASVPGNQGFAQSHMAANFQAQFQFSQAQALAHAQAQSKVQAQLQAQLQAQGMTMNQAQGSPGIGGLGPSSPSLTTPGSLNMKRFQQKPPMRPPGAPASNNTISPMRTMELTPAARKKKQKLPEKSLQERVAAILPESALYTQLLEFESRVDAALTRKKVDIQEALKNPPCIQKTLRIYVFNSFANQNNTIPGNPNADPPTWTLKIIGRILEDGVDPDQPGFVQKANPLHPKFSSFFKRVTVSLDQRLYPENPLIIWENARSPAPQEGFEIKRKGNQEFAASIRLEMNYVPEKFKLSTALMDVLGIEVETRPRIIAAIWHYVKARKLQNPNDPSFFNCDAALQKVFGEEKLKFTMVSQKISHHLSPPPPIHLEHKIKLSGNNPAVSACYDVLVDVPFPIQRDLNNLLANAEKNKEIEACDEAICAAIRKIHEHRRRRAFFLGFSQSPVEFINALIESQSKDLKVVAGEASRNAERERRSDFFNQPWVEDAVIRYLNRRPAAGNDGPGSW

Test [2] has as its target SWP73A-YFPHA (Arabidopsis thaliana) (UniProt F4JBZ1).
In test [3] the target is SWP73B-YFPHA (Arabidopsis thaliana) (UniProt Q9FMT4).
Test [4] deals with T1, SWI3D-YFPHA (Arabidopsis thaliana). The source holds these as a separate data set.

Like-named read-outs stand apart in the source and are kept apart here. Results are given in words; binding and its absence hold for the method and conditions named. In cells and extracts the contact can be indirect. A yes stands for co-enrichment or nearness to the bait. Other partners may have been found. For some assays here: No binding means not detected with the bait.

As to BCL7A, the binding result in test [1] is “binds”.

Take BCL7B: the binding entry in test [1] is “binds”.

Regarding SWP73A (endogenous), in test [1], the binding entry is reported as “no binding”.

Regarding SYS1, in test [1], the binding entry is recorded as “binds”.

On to SYS2, for which, in test [1], the binding entry is on record as “binds”.

Regarding SYS3, in test [1], the binding entry is given as “binds”.

B1: SWI3C (protein, UniProt Q9XI07 1-807)
chain: MPASEDRRGKWKRKKRGGLSAARKPKQEEEDMEEEDEENNNNNNEEMDDVENADELQQNGGATPDPGLGIGEVVEDSGSRISDFPAVVKRVVIRPHASVMAVVAAERAGLIGETRGQGSLPALENISFGQLQALSTVPADSLDLERSDGSSSAYVISPPPIMDGEGVVKRFGDLVHVLPMHSDWFAPNTVDRLERQVVPQFFSGKSPNHTPESYMEFRNAIVSKYVENPEKTLTISDCQGLVDGVDIEDFARVFRFLDHWGIINYCATAQSHPGPLRDVSDVREDTNGEVNVPSAALTSIDSLIKFDKPNCRHKGGEVYSSLPSLDGDSPDLDIRIREHLCDSHCNHCSRPLPTVYFQSQKKGDILLCCDCFHHGRFVVGHSCLDFVRVDPMKFYGDQDGDNWTDQETLLLLEAVELYNENWVQIADHVGSKSKAQCILHFLRLPVEDGLLDNVEVSGVTNTENPTNGYDHKGTDSNGDLPGYSEQGSDTEIKLPFVKSPNPVMALVAFLASAVGPRVAASCAHESLSVLSEDDRMKSEGMQGKEASLLDGENQQQDGAHKTSSQNGAEAQTPLPQDKVMAAFRAGLSAAATKAKLFADHEEREIQRLSANIVNHQLKRMELKLKQFAEIETLLMKECEQVEKTRQRFSAERARMLSARFGSPGGISPQTNNLQGMSLSTGGNNINSLMHQQHQQQQASATSQPSIIPGFSNNPQVQAQMHFMARQQQQQQQQQQQQQQAFSFGPRLPLNAIQTNAGSTASPNVMFGNNQLNNPAAAGAASINQPSFSHPMVRSSTGSGSGSGLGLN
Turning to B1, the binding entry in test [2] and in test [3] was “binds” throughout.

B2: ARP7 (protein, UniProt Q8L4Y5 1-363)
chain: MEALVVDAGSKFLKAGAAIPDQSPAMIIPSQMKRMVDDGSSSADNPTTVFEDVTLDPIERGLIRDWDAMEDLLRYVVYTGLGWEEGNEGNILFTDPLCTPKAIREQLVQLMFETFNVSGFYASEQAVLSLYAVGRISGCTVDIGHGKIDIAPVLEGAVQHIASKRFELGGTELTKLFAQELGKTNPSMNLSMSDVEKLKEQYANCAEDEIAYKKTQNCEIEQHTLPDGQVISIGRERYSVGEALFQPSILGLEEHGIVEQLVRIISTVSSENHRQLLENTVLCGGTTSMTGFESRFQKEANLCSSAIRPTLVKPPEYMPENLGMYSAWVGGAILAKVVFPQNQHVTKADYDETGPSVVHRKCF
With B2, the binding result in test [4], in test [2] and in test [3] was “binds” each time.

B3: MINU2 (protein, UniProt F4K128 1-1064)
chain: MVKQLQEQEENDPVEKTKSLISALNYLSRDLLLPSHLYASVSSIYHASVSDLSPSPPLRGNSYTPNRGDLMSEFEDALLQQRLNYESGSRLAELKETRYKNRIHNRLSQLEGLPSNRGEDLQEKCLLELYGLKLQELQCRVRGEVSAEYWLRLNCADPERQLYDWGMMRLPRRMYGVGDSFVMEADDQFRNKRDAERLLRLEEEEKNLIETTQRKFFAEVLNAVREFQLQIQASHRRCKQRNDGVQAWHGKQRQRATRAEKLRIMALKSDDQEEYMKLAKESKNEKLTLFLEETNKIFVSLGAAVQRQKDAKLSENTKLLKGSESDLSDVDAPEDVLPAQDIEIIDSDNNDDSNDLLEGERQFNLAIHSIQEKVTKQPSLLQGGELRSYQLEGLQWMVSLYNNDYNGILADEMGLGKTIQTIALIAYLLESKDLHGPHLILAPKAVLPNWENEFALWAPSISAFLYDGSKEKRTEIRARIAGGKFNVLITHYDLIMRDKAFLKKIDWNYMIVDEGHRLKNHECALAKTLGTGYRIKRRLLLTGTPIQNSLQELWSLLNFLLPHIFNSIHNFEEWFNTPFAECGSASLTDEEELLIINRLHHVIRPFLLRRKKSEVEKFLPGKTQVILKCDMSAWQKLYYKQVTDVGRVGLHSGNGKSKSLQNLTMQLRKCCNHPYLFVGADYNMCKKPEIVRASGKFELLDRLLPKLKKAGHRILLFSQMTRLIDLLEIYLSLNDYMYLRLDGSTKTDQRGILLKQFNEPDSPYFMFLLSTRAGGLGLNLQTADTIIIFDSDWNPQMDQQAEDRAHRIGQKKEVRVFVLVSIGSIEEVILERAKQKMGIDAKVIQAGLFNTTSTAQDRREMLEEIMSKGTSSLGEDVPSEREINRLAARTEEEFWMFEQMDEERRKKENYKTRLMEEKEVPEWAYTSETQEDKTNAKNHFGSLTGKRKRKEAVYSDSLSDLQWMKAMESEDEDASKVSQKRKRTDTKTRMSNGSKAEAVLSESDEEKEEEEEERKEESGKESEEENEKPLHSWKTNKKKRSRYPVMTSSPNSRGKGSSKGSKRN
Turning to B3, in test [3], the binding entry is listed as “binds”.

B4: SWI3D (endogenous) (protein, UniProt Q8VY05 1-985)
chain: MEEKRRDSAGTLAFAGSSGDSPASEPMPAPRRRGGGLKRKANALGGSNFFSSAPSKRMLTREKAMLASFSPVHNGPLTRARQAPSIMPSAADGVKSEVLNVAVGADGEKPKEEEERNKAIREWEALEAKIEADFEAIRSRDSNVHVVPNHCGWFSWEKIHPLEERSLPSFFNGKLEGRTSEVYREIRNWIMGKFHSNPNIQIELKDLTELEVGDSEAKQEVMEFLDYWGLINFHPFPPTDTGSTASDHDDLGDKESLLNSLYRFQVDEACPPLVHKPRFTAQATPSGLFPDPMAADELLKQEGPAVEYHCNSCSADCSRKRYHCPKQADFDLCTECFNSGKFSSDMSSSDFILMEPAEAPGVGSGKWTDQETLLLLEALEIFKENWNEIAEHVATKTKAQCMLHFLQMPIEDAFLDQIDYKDPISKDTTDLAVSKDDNSVLKDAPEEAENKKRVDEDETMKEVPEPEDGNEEKVSQESSKPGDASEETNEMEAEQKTPKLETAIEERCKDEADENIALKALTEAFEDVGHSSTPEASFSFADLGNPVMGLAAFLVRLAGSDVATASARASIKSLHSNSGMLLATRHCYILEDPPDNKKDPTKSKSCSADAEGNDDNSHKDDQPEEKSKKAEEVSLNSDDREMPDTDTGKETQDSVSEEKQPGSRTENSTTKLDAVQEKRSSKPVTTDNSEKPVDIICPSQDKCSGKELQEPLKDGNKLSSENKDASQSTVSQSAADASQPEASRDVEMKDTLQSEKDPEDVVKTVGEKVQLAKEEGANDVLSTPDKSVSQQPIGSASAPENGTAGGNPNIEGKKEKDICEGTKDKYNIEKLKRAAISAISAAAVKAKNLAKQEEDQIRQLSGSLIEKQLHKLEAKLSIFNEAESLTMRVREQLERSRQRLYHERAQIIAARLGVPPSMSSKASLPTNRIAANFANVAQRPPMGMAFPRPPMPRPPGFPVPGSFVAATTMTGSSDPSPGSDNVSSV
Consider B4, for which the binding result in test [3] is reported as “binds”.

B5: LFR (protein, UniProt Q9LS90 1-460)
chain: MQKRELGKSGGNSGGSSGPPAKRGRPFGSTSANSAAAAAAAAAADAMSPSALLGPSLLVHNSFVEQNNRRIVLALQSGLKSEVTWALNTLTLLSFKEKEDIRRDVMPLAKIAGLLDALLLIIDDWRDIALPKDLTRGTRVRTLGTNASVTGFGNEYDALASIQPPGSGIGSSAAEALGKKSTGKHQSSQWWMEEDGLFNLDDEGRSEKQMCAIAASNVIRNFSFMPDNEVVMAQHRHCLETVFQCIHDHMTEDEELVTNSLETIVNLAHLMDLRIFSSLKQSYININEKKAVQAVVGILNSSVKAWNCAAAELLGRLIINPDNEPFISPLIPQIHKRLIDLLSIQAVDAQAAAVGALYNLVEVNMDCRLKLASERWAVDRLLKVIKTPHPVPEVCRKAAMILENLVSEPQNRGLLLAYENAFAELLFQEGKYSDSFARILYELTARSNSRVASARGIWGM
For the molecule B5, the binding result in test [4] is listed as “binds”.

B6: ARP4 (protein, UniProt Q84M92 1-441)
chain: MYGGDEVSAIVVDLGSHTCKAGYAGEDAPKAVFPSVIGAVDGVEAMDVDVDSTKTNSNSEDSKTESEKEKSKRKLYVGSQAMSYRRDHMEVLSPIKDGIVSDWDLVDNIWEHAFKSCLMIDPTEHPMLLAEPPLNTQQQREKAAELMFEKYKVPALFMAKNPVLTSFATGRATSLVVDCGGGSTTISPVHDGYVLQKAVVSSPLGGEFLTDCLLKSLESKGIKIRPRYSFKRKEVRAGEFQVEDVDIPDTTESYKLFCQRMIVGDIKDSICRVPDTPYDDKSYSNIPTTSYELPDGQTLEIGADRFKVPDVMFNPSIVQTIPGMEKYAEMIPSVRGLPHMVMESINKCDVDIRRELYSSILLAGGTSSMQQLKERLEKDLIEESPHSARVKVLASGNTTERRFSVWIGGSILASLGSFQQMWFSKSEYEEHGASYIQRKCP
Take B6: the binding entry in test [4], in test [2] and in test [3] was “binds” each time.

Source of the values: publication PMC12177292.
